Results: article PMC10136435

Key:
Test in all cases: electrochemical impedance spectroscopy (CNF-IL/PGE)
[1] = system: activated protein C (APC) (human); details: 5'-NH2 on strand 1, Solution-phase interaction (5 min; 1-5 min with AD22) in PBS or FBS diluted in PBS (1:2000 for selectivity), then 10 min immobilization on CNF-IL/PGE, EIS in redox probe, commercial protein
[2] = target: bovine serum albumin (BSA) (bovine) (UniProt P02769); details: FBS:PBS 1:2000, 0.6 ug/mL protein, Rct 157 +/- 9.19 Ohm; 5'-NH2; Solution-phase interaction (5 min; 1-5 min with AD22) in PBS or FBS diluted in PBS (1:2000 for selectivity), then 10 min immobilization on CNF-IL/PGE; EIS in redox probe; commercial protein; single-stranded DNA; counted as no binding
thrombin (THR) = details: FBS:PBS 1:2000, 0.6 ug/mL protein, Rct 202.00 +/- 33.60 Ohm; 5'-NH2; Solution-phase interaction (5 min; 1-5 min with AD22) in PBS or FBS diluted in PBS (1:2000 for selectivity), then 10 min immobilization on CNF-IL/PGE; EIS in redox probe; commercial protein; single-stranded DNA; counted as no binding

Sequence: GCCTCCTAACTGAGCTGTACTCGACTTATCCCGGATGGGGCTCTTAGGAGGC / ATCCGGGATAAGTCGAGTACAG [DNA-Apt-AD22 aptamer-antidote pair]
- binding signal (% Rct change vs DNA-Apt + APC) ([1]; artificial serum (FBS), 0.1 ug/mL aptamer, 0.1 ug/mL AD22, 0.6 ug/mL APC, Rct 295.75 +/- 18.41 Ohm): -23.2
- binding signal (% Rct change vs DNA-Apt + APC) ([1]; buffer, 1 min interaction, Rct 292 +/- 55.76 Ohm, at 2 and 5 min Rct rose by 26.50% and 52.54%): -6.8

Sequence: GCCTCCTAACTGAGCTGTACTCGACTTATCCCGGATGGGGCTCTTAGGAGGC [DNA-Apt (HS02-52G)]
- binding signal (% Rct change vs DNA-Apt alone) [2]: -33.8
- binding signal (% Rct change vs DNA-Apt alone) (thrombin (THR)): -15.2

For some of these results: Construct, isoform or probe ends are uncertain for at least one entry. The direction of at least one scale is not stated here.
